Library screening results

By UniProt entry, the sequences of proteins in these tests, tags left out.
UniProt E9BF75, entry or part of it: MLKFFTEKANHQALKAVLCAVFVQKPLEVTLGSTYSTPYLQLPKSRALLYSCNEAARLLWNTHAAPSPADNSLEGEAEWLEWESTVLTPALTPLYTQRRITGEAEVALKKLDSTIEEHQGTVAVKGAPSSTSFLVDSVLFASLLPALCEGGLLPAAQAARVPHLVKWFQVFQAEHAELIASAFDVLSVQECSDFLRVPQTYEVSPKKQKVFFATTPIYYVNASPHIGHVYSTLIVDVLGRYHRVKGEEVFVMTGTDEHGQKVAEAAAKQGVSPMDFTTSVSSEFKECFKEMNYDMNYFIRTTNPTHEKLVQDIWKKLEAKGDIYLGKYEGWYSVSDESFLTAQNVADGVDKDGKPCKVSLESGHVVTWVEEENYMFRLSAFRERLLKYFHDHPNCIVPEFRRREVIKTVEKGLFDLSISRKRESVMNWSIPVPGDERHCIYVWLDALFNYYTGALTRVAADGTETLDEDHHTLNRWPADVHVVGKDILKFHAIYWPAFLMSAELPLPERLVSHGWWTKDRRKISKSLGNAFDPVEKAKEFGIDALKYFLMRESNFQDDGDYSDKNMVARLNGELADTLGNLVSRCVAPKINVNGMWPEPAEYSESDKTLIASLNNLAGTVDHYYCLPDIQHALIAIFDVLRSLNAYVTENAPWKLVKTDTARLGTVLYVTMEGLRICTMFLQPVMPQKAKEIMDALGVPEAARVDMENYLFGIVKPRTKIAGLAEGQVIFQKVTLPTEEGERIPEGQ

Data taken from ChEMBL document CHEMBL3988442, “University of Dundee, Small-Polar-MMV Screening Library” (2021).

Mtb heat-shock: 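Assay on Mycobacterium tuberculosis, filed only as a heat shock assay from Cornell; the read-out is not stated. The concentration is filed as 10 mM, unlikely as a test dose, so the dose is not known. Direction is inferred from retests: higher values go with stronger inhibition. About 69,000 compounds were tested under these conditions; 1.4% (about 930) showed 50% or more at least once.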
LdMetRS: 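Primary screen of methionyl-tRNA synthetase; the read-out is not stated. Target: Methionyl-tRNA synthetase (putative), Leishmania donovani (UniProt E9BF75). The test concentration is not given. Values are per cent inhibition. About 68,000 compounds were tested under these conditions; 0.035% (about 24) showed 50% or more at least once.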
Mtb growth Cornell: 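Whole-cell assay for inhibitors of Mycobacterium tuberculosis growth, labelled Cornell in the record; the read-out is not stated. The concentration is filed as 10 mM, unlikely as a test dose, so the dose is not known. The record gives no direction; compounds strong in two other growth screens of this library score well above the rest, so higher reads as stronger inhibition. About 53,000 compounds were tested under these conditions; 1.7% (about 900) showed 50% or more at least once.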

Results are percentages, as filed. How 0% and 100% were set is not recorded. Most values in the screen are low, and negative values occur. This is an unselected part of the compounds tested. A dash means the value is not listed here; it may have been measured.

With Cn1cc(Cl)c(CN(Cc2ccsc2)CC2CCCO2)n1 (stereo not shown) the screen gave Mtb heat-shock: 0.699%; LdMetRS: 12.47%; Mtb growth Cornell: 2.622%. O=C(O)C(F)(F)F.O=C(O)C(F)(F)F.O=C1N(c2cncnc2)CCC12CCCN(Cc1ccccn1)C2 (stereo not shown) gave Mtb heat-shock: -36.75%; Mtb growth Cornell: 9.454%. For O=C(O)C(F)(F)F.[H][C@@]12CCN(CCc3ccccc3)[C@]1([H])CC[C@@H](C(=O)NC1CCC1)O2 the result was Mtb heat-shock: 9.106%; Mtb growth Cornell: 2.33%. CNC(=O)NC(=O)C(C)Nc1ccccc1OCCOC (stereo not shown) read Mtb heat-shock: 4.457%; LdMetRS: 15.03%; Mtb growth Cornell: 12%. For CS(=O)(=O)NCC(=O)N[C@H]1CN(CC2CC2)C[C@@H]1c1ccccc1 the result was Mtb heat-shock: 2.794%; LdMetRS: 11.34%.

Cc1nc(N2CCCC2)nc2c1CCN(C(=O)N1CCCC1)CC2 gave Mtb heat-shock: -3.398%; LdMetRS: 21.47%; Mtb growth Cornell: 11.54%. For c1ccc(-c2nc(CN3CCn4c(nnc4C4CC4)C3)cs2)cc1 the result was Mtb heat-shock: 10.73%; LdMetRS: 10.97%; Mtb growth Cornell: 40.09%. With CNC(=O)CN(C)Cc1ccc(F)cc1Cl the screen gave Mtb heat-shock: -7.778%; LdMetRS: 18.35%; Mtb growth Cornell: -15.49%. For CN1C(=O)[C@H]2CC[C@@H]1CN(C(=O)c1csc(Cc3ccccc3)n1)C2 the result was LdMetRS: 9.415%. Cc1cc(C)c(CNC(=O)NCC2CCCO2)c(=O)[nH]1 (stereo not shown) read Mtb heat-shock: -5.288%; LdMetRS: 3.061%.

O=C(NCc1nc(-c2ncccn2)no1)c1ccc(C2CCCO2)s1 (stereo not shown) read Mtb heat-shock: -22.66%. Cl.NC(=O)c1ccc(C2CCCNC2)nc1 (stereo not shown) read Mtb heat-shock: 6.817%; Mtb growth Cornell: 1.652%. Result for CC1CCc2nn(CCNC(=O)Cc3ccc(F)cc3)c(=O)cc2C1 (stereo not shown) was Mtb heat-shock: 9.045%; LdMetRS: 12.77%; Mtb growth Cornell: 7.744%. CN(C)C(=O)Cc1nc(CN2CCn3c(nnc3C3CC3)C2)cs1 read Mtb heat-shock: 7.869%; LdMetRS: 2.222%; Mtb growth Cornell: 29.27%. For Cc1ccc(C(=O)N[C@H]2CN(CCO)C[C@@H]2C2CC2)cc1Cl the result was Mtb heat-shock: -32.79%; LdMetRS: 2.133%.

With COc1ccccc1CN(Cc1cccc(C)c1)C(=O)[C@@H](N)CC(=O)O the screen gave Mtb heat-shock: 5.424%; LdMetRS: 4.676%; Mtb growth Cornell: -26.09%. O=C(Nc1cccnc1)[C@H]1C[C@@H]2CN(S(=O)(=O)C3CC3)C[C@H]1O2 read LdMetRS: 10.45%. With CCN(Cc1ccc(C#N)cc1F)C(=O)CN(C)CC(N)=O the screen gave Mtb heat-shock: -11.13%; LdMetRS: 11.78%. c1cc2cc[nH]c2c(CC2CN(Cc3cscn3)C2)n1 gave Mtb heat-shock: -0.5556%; LdMetRS: 18.62%; Mtb growth Cornell: 13.99%. O=C(Cc1cnccn1)N1CCC(c2nccn2CC2CC2)CC1 gave Mtb heat-shock: -2.535%; LdMetRS: 16.72%; Mtb growth Cornell: 5.691%.

Result for Oc1nc(C2CCN(Cc3ccccn3)CC2)cc2ccccc12 was Mtb heat-shock: -9.632%; LdMetRS: -4.724%; Mtb growth Cornell: -38.01%. Cc1cccc(CN2CCN3C[C@H](Oc4cccnc4)C[C@H]3C2)n1 read LdMetRS: 12.59%.

3 of the entries, repeated:

| SMILES | Mtb heat-shock | LdMetRS | Mtb growth Cornell |
|---|---|---|---|
| `Cn1cc(Cl)c(CN(Cc2ccsc2)CC2CCCO2)n1` (stereo not shown) | 0.699% | 12.47% | 2.622% |
| `c1ccc(-c2nc(CN3CCn4c(nnc4C4CC4)C3)cs2)cc1` | 10.73% | 10.97% | 40.09% |
| `CS(=O)(=O)NCC(=O)N[C@H]1CN(CC2CC2)C[C@@H]1c1ccccc1` | 2.794% | 11.34% | - |